These results are taken from paper PMC6168554.

Protein sequences, listed by entry. Tags and fused reporters are not part of them. Lines headed by an entry give the natural chain unless they say otherwise; changes in a name come on top.
UniProt Q5NC57: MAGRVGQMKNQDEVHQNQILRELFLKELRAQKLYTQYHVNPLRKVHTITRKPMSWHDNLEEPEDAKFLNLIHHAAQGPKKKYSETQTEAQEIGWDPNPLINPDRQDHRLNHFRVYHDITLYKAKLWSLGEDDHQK

This assay deals with N-flag-FAM183b (4 exons) (mouse) (UniProt Q5NC57). The experiment in a line: co-IP; CHO cells co-transfected with Flag-FAM183b and NUP93-Myc; IP with anti-Myc 9E10 or anti-Flag M2 and Protein G beads; washes with 500 mM NaCl, 0.05% NP-40; blots with anti-Myc-POD and anti-Flag-POD.

Results are given in words; binding and its absence hold for the method and conditions named. In cells and extracts the contact can be indirect. A result given as binding can be weak or reduced; the word gives no strength. Where a sequence is shown, tags or fusion partners need not be part of it.

B1: C-terminally Myc-tagged NUP93 (protein, UniProt Q8BJ71 1-819)
chain: MDTEGFGELLQQAEQLAAETEGISELPHVERNLQEIQQAGERLRSRTLTRTSQETADVKASVLLGSRGLDISHISQRLESLSAATTFEPLEPVKDTDIQGFLKNEKDNALLSAIEESRKRTFGMAEEYHRESMLVEWEQVKQRILHTLLASGEDALDFTQESEPSYIGDVNPPGRSSLDSIEMAYARQIYIYNEKIVSGHLQPNLVDLCASVAELDDKSISDMWAMVKQMTDVVLTPATDALKSRSSVEVRMDFVKQALGYLEQSYKNYTLVTVFGNLHQAQLGGVPGTYQLVRSFLNIKLPAPSPGLQDGEVEGHPVWALIYYCMRCGDLLAASQVVSRAQHQLGEFKTWFQEYMNSKDRRLSPATENKLRLHYRRALRNNTDPYKRAVYCIIGRCDITDNQSEVADKTEDYLWLKLNQVCFDDDGTSSPQDRLTLSQFQKQLLEDYGESHFTVNQQPFLYFQVLFLTAQFEAAIAFLFRMERLRCHAVHVALVLFELKLLLKSSGQSAQLLSHEPGDPPCMRRLNFVRLLMLYTRKFESTDPREALQYFYFLRDEKDSQGENMFLRCVSELVIESREFDMILGKLENDGSRKPGVIDKFTSDTKPIINKVASVAENKGLFEEAAKLYDLAKNADKVLELMNKLLSPVVPQISAPQSNKERLKNMALSIAERYRAQGISANKFVDSTFYLLLDLITFFDEYHSGHIDRAFDIIDRLKLVPLNQESVEERVAAFRNFSDEIRHNLSEVLLATMNILFTQFKRLKGTSPSSATRPQRVIEDRDSQLRSQARALITFAGMIPYRTSGDTNARLVQMEVLMN
Consider B1, for which the binding result was “binds”.
